Measured data: PubChem BioAssay AID1259308 (NCATS, 2017)
Shown is one part, drawn at random, of about 59,000 deposited reagents. About 1,510 of all reagents (2.6%) count as active. 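Calls use total luciferase alone and ignore viability, so some active siRNAs may act by altering cell number.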 Unmarked entries are inactive. Reagents against one gene are numbered here. Further read-outs or replicates are left out here.

Aim: 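Genes whose loss raises luciferase production in HEK293 cells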 (primary screen)
Cell system: human HEK293 embryonic kidney cells stably expressing firefly luciferase (HEK-CMV-Luc2-Hygro)
Knock-down reagent: single siRNA against human genes, 0.8 pmol siRNA per well
Duration: 72 h
Read-out: 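Luciferase light (ONE-Glo) measured on one replicate plate set and viability (CellTiter-Glo) on the other, scaled to a negative control siRNA, with robust z-scores and luciferase per cell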
Scale: total luciferase, z-score and total luciferase, % of control: higher = more reporter protein produced
Call rule: 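An siRNA counts as active if its total luciferase robust z-score exceeds 3; genes with two or more such siRNAs out of three were retested with fresh siRNAs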
Meaning of the calls: active = raised luciferase; inactive = no rise

What did the screen give for PDPR (GeneID 55066) #1?
total luciferase, z-score: -0.164; total luciferase, % of control: 78.6

What did the screen give for PDPR (GeneID 55066) #2?
total luciferase, z-score: -0.422; total luciferase, % of control: 73.5

For PDPR (GeneID 55066) #3, what was measured?
total luciferase, z-score: -1.37; total luciferase, % of control: 54.6

For FAM9C (GeneID 171484) #1, what was measured?
total luciferase, z-score: -0.224; total luciferase, % of control: 77.4

For FAM9C (GeneID 171484) #2, what does the deposit list?
total luciferase, z-score: -0.904; total luciferase, % of control: 63.9

How did the screen score FAM9C (GeneID 171484) #3?
total luciferase, z-score: 1.86; total luciferase, % of control: 119

What is on record for FIMP1 (GeneID 146378) #1?
total luciferase, z-score: -0.742; total luciferase, % of control: 67.1

What is on record for FIMP1 (GeneID 146378) #2?
total luciferase, z-score: -1.24; total luciferase, % of control: 57.3

Which result is listed for FIMP1 (GeneID 146378) #3?
total luciferase, z-score: -0.586; total luciferase, % of control: 70.2

What did the screen give for SIAH1 (GeneID 6477) #1?
total luciferase, z-score: -1.01; total luciferase, % of control: 61.8

Which result is listed for SIAH1 (GeneID 6477) #2?
total luciferase, z-score: -0.602; total luciferase, % of control: 69.9

What is on record for SIAH1 (GeneID 6477) #3?
total luciferase, z-score: -0.963; total luciferase, % of control: 62.7

Only “total luciferase, % of control”, for 2 of the entries above:
SIAH1 (GeneID 6477) #2: 69.9
SIAH1 (GeneID 6477) #3: 62.7
